These are yes or no findings as the source states them, for the method shown. In cells and extracts the contact can be indirect. Some binding calls cover weakened binding; strength is not graded here. For some of these results: Tags and fused reporters may be left off the sequences shown.
Key:
GST–14-3-3β (mouse) = target: T1, GST–14-3-3β (mouse) (UniProt Q9CQV8); experiment: pull-down; GST–14-3-3β on Glutathione Sepharose 4B; EGFP-tagged proteins in HeLa cell lysates; immunoblotting; only the target purified
T1 sequence: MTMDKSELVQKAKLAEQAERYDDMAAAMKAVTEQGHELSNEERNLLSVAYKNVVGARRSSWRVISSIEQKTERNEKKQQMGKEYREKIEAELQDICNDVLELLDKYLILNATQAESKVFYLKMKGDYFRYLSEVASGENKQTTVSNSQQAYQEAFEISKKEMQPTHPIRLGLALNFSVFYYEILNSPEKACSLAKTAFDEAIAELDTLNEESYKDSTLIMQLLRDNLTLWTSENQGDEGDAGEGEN

KGN–14-3-3β (mouse) = target: T2, KGN–14-3-3β (mouse) (UniProt Q9CQV8); experiment: split reporter; BiFC (Kusabira-Green) between KGN–14-3-3β and KGC–A/B/C/DA-Raf in living MDCK cells, 48 h after transfection, 37°C
T2 sequence: T1 sequence

EGFP–C-Raf (from UniProt P04049 1-648)
binding (GST–14-3-3β (mouse)): binds

KGC–C-Raf (from UniProt P04049 1-648)
binding (KGN–14-3-3β (mouse)): binds

B1: EGFP–A-Raf (protein, UniProt P04627 1-604)
chain: MEPPRGPPVSGAEPSRAVGTVKVYLPNKQRTVVTVREGMSVYDSLDKALKVRGLNQDCCVVYRLIKGRKTVTAWDTAIAPLDGEELIVEVLEDVPLTMHNFVRKTFFSLAFCDFCLKFLFHGFRCQTCGYKFHQHCSSKVPTVCVDMSTNRRQFYHSIQDLSGGSRQQEAPSNLSVNELLTPQGPSPFTQQRDQEHFSFPAPANPPLQRIRSTSTPNVHMVSTTAPMDSSLMQFTAQSFSTDAAGRGGDGAPRGSPSPASVSSGRKSPHSKLPSEQRERKSLADEKKKVKNLGYRDSGYYWEVPPSEVQLLKRIGTGSFGTVFRGRWHGDVAVKVLKVAQPTAEQAQAFKNEMQVLRKTRHVNILLFMGFMTRPGFAIITQWCEGSSLYHHLHVADTRFDMVQLIDVARQTAQGMDYLHAKNIIHRDLKSNNIFLHEGLTVKIGDFGLATVKTRWSGAQPLEQPSGSVLWMAAEVIRMQDPNPYSFQSDVYAYGVVLYELMTGSLPYSHIGSRDQIIFMVGRGYLSPDLSKIFSNCPKAMRRLLTDCLKFQREERPLFPQILATIELLQRSLPKIERSASEPSLHRTQADELPACLLSAARLVP
binding (GST–14-3-3β (mouse)): binds

B2: KGC–A-Raf (protein, UniProt P04627 1-604)
chain: B1 chain
binding (KGN–14-3-3β (mouse)): binds
